# Laboratory results from publication PMC10835002.
# Amino acid sequences for entries named in this document (tags omitted). Residues count along the entry.
# UniProt O95292: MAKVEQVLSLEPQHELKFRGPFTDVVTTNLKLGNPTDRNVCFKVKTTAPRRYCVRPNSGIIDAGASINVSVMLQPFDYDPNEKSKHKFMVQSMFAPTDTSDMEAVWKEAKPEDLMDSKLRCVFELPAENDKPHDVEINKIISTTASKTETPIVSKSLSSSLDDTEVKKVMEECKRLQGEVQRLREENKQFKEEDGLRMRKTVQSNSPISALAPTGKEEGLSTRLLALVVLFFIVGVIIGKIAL
# UniProt P25705, residues 44-553: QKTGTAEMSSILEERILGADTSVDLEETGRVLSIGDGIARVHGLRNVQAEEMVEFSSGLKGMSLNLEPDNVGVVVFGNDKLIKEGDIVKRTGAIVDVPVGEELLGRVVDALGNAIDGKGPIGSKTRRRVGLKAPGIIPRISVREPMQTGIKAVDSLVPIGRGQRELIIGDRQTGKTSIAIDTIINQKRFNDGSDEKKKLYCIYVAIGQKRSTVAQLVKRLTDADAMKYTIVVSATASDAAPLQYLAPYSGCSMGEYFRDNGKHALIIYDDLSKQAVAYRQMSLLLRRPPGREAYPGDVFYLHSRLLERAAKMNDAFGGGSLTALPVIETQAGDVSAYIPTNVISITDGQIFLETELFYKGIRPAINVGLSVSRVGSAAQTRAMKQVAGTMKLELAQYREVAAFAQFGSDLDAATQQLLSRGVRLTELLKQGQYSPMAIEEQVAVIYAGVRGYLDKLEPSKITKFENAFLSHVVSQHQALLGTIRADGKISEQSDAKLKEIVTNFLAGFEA
# UniProt P04899: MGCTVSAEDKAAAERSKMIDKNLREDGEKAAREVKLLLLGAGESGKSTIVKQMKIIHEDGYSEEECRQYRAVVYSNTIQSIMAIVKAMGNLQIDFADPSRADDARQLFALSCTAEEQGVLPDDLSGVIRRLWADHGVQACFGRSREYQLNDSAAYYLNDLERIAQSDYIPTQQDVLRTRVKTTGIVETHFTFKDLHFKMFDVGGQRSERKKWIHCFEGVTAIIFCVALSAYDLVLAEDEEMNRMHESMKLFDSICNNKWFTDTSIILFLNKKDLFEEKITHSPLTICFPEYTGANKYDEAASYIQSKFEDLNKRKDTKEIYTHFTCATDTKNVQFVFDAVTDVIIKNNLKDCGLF
# UniProt Q07065: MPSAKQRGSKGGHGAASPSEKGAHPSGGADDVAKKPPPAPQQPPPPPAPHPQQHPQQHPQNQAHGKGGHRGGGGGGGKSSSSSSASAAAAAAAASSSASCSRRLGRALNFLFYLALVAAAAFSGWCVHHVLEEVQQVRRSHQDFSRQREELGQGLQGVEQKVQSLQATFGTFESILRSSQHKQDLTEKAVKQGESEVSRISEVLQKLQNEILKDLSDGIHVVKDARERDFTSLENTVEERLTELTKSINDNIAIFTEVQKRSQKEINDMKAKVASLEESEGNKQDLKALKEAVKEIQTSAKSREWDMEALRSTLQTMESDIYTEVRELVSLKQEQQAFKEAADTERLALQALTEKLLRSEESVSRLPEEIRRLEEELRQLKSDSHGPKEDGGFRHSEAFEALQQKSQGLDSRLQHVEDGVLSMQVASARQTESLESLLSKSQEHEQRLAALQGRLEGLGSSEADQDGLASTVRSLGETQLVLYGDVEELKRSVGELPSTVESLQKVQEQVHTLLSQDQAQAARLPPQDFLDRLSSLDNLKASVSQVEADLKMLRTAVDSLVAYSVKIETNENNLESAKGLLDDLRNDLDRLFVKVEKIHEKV
# UniProt Q969V5: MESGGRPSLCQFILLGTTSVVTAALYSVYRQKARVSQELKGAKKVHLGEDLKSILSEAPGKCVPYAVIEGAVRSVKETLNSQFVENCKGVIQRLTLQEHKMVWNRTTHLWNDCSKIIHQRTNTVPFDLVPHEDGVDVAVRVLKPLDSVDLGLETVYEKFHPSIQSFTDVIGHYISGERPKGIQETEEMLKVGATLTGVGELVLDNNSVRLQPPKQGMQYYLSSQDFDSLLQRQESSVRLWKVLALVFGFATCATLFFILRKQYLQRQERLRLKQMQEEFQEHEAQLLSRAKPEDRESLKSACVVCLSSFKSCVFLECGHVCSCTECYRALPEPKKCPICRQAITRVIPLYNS
# UniProt P49069: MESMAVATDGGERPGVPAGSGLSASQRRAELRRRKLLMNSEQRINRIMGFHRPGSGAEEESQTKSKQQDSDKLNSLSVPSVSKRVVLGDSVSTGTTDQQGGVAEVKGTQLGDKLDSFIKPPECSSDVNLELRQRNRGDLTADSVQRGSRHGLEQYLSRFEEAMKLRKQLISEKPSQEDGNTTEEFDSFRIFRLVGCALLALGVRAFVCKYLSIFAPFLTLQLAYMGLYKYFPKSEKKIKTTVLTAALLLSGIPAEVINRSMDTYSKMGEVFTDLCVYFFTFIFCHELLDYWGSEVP
# T1: Flag-tagged basic leucine zipper and W2 domain-containing protein 2 (BZW2) (human) (UniProt Q9Y6E2)
# T1 sequence: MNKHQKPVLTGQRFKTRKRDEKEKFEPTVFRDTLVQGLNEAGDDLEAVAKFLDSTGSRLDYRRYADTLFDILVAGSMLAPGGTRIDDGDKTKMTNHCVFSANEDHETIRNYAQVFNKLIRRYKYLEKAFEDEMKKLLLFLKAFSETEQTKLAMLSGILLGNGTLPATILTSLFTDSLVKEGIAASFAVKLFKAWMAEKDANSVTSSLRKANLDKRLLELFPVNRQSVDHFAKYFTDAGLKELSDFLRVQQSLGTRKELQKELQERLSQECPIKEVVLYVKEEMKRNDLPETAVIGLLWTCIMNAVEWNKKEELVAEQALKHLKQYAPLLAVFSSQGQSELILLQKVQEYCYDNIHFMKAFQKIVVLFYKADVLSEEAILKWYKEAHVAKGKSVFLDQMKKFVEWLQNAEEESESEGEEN
# Target: T1, Flag-tagged basic leucine zipper and W2 domain-containing protein 2 (BZW2) (human)
# Experiment: affinity purification with mass spectrometry; SILAC, two forward and two reverse replicates; HEK293 stably expressing Flag-tagged BZW2 against tag-free BZW2 as control; anti-FLAG M2 affinity gel, washed 3x with NP40 wash buffer (0.2% NP40, 25 mM Tris-HCl pH 7.4, 150 mM NaCl); hits: H/L >= 4.0 forward and <= 0.4 reverse in at least three of four replicates
row,binding,Molecule
1,binds,VAPB (from UniProt O95292 1-243)
2,binds,TMPO/LAP2 (human (endogenous in HEK293))
3,binds,ATP5A1 (from UniProt P25705 44-553)
4,binds,GNAI2 (from UniProt P04899 1-355)
5,binds,CKAP4 (from UniProt Q07065 1-602)
6,binds,MUL1 (from UniProt Q969V5 1-352)
7,binds,CAMLG (from UniProt P49069 1-296)
8,binds,BSG (from UniProt P35613-2)
9,binds,"BCAP31 (protein, UniProt P51572 1-246) MSLQWTAVATFLYAEVFVVLLLCIPFISPKRWQKIFKSRLVELLVSYGNTFFVVLIVILVLLVIDAVREIRKYDDVTEKVNLQNNPGAMEHFHMKLFRAQRNLYIAGFSLLLSFLLRRLVTLISQQATLLASNEAFKKQAESASEAAKKYMEENDQLKKGAAVDGGKLDVGNAEVKLEEENRSLKADLQKLKDELASTKQKLEKAENQVLAMRKQSEGLTKEYDRLLEEHAKLQAAVDGPMDKKEE"
10,binds,"RALA (protein, UniProt P11233 1-206) MAANKPKGQNSLALHKVIMVGSGGVGKSALTLQFMYDEFVEDYEPTKADSYRKKVVLDGEEVQIDILDTAGQEDYAAIRDNYFRSGEGFLCVFSITEMESFAATADFREQILRVKEDENVPFLLVGNKSDLEDKRQVSVEEAKNRAEQWNVNYVETSAKTRANVDKVFFDLMREIRARKMEDSKEKNGKKKRKSLAKRIRERCCIL"
11,binds,"SRPRB (protein, UniProt Q9Y5M8 1-271) MASADSRRVADGGGAGGTFQPYLDTLRQELQQTDPTLLSVVVAVLAVLLTLVFWKLIRSRRSSQRAVLLVGLCDSGKTLLFVRLLTGLYRDTQTSITDSCAVYRVNNNRGNSLTLIDLPGHESLRLQFLERFKSSARAIVFVVDSAAFQREVKDVAEFLYQVLIDSMGLKNTPSFLIACNKQDIAMAKSAKLIQQQLEKELNTLRVTRSAAPSTLDSSSTAPAQLGKKGKEFEFSQLPLKVEFLECSAKGGRGDVGSADIQDLEKWLAKIA"
12,binds,"SLC16A1/MCT1 (protein, UniProt P53985 1-500) MPPAVGGPVGYTPPDGGWGWAVVIGAFISIGFSYAFPKSITVFFKEIEGIFHATTSEVSWISSIMLAVMYGGGPISSILVNKYGSRIVMIVGGCLSGCGLIAASFCNTVQQLYVCIGVIGGLGLAFNLNPALTMIGKYFYKRRPLANGLAMAGSPVFLCTLAPLNQVFFGIFGWRGSFLILGGLLLNCCVAGALMRPIGPKPTKAGKDKSKASLEKAGKSGVKKDLHDANTDLIGRHPKQEKRSVFQTINQFLDLTLFTHRGFLLYLSGNVIMFFGLFAPLVFLSSYGKSQHYSSEKSAFLLSILAFVDMVARPSMGLVANTKPIRPRIQYFFAASVVANGVCHMLAPLSTTYVGFCVYAGFFGFAFGWLSSVLFETLMDLVGPQRFSSAVGLVTIVECCPVLLGPPLLGRLNDMYGDYKYTYWACGVVLIISGIYLFIGMGINYRLLAKEQKANEQKKESKEEETSIDVAGKPNEVTKAAESPDQKDTDGGPKEEESPV"
13,binds,"PTPLAD1/HACD3 (protein, UniProt Q9P035 1-362) MENQVLTPHVYWAQRHRELYLRVELSDVQNPAISITENVLHFKAQGHGAKGDNVYEFHLEFLDLVKPEPVYKLTQRQVNITVQKKVSQWWERLTKQEKRPLFLAPDFDRWLDESDAEMELRAKEEERLNKLRLESEGSPETLTNLRKGYLFMYNLVQFLGFSWIFVNLTVRFCILGKESFYDTFHTVADMMYFCQMLAVVETINAAIGVTTSPVLPSLIQLLGRNFILFIIFGTMEEMQNKAVVFFVFYLWSAIEIFRYSFYMLTCIDMDWKVLTWLRYTLWIPLYPLGCLAEAVSVIQSIPIFNETGRFSFTLPYPVKIKVRFSFFLQIYLIMIFLGLYINFRHLYKQRRRRYGQKKKKIH"
14,binds,"PRDX1 (protein, UniProt Q06830 1-199) MSSGNAKIGHPAPNFKATAVMPDGQFKDISLSDYKGKYVVFFFYPLDFTFVCPTEIIAFSDRAEEFKKLNCQVIGASVDSHFCHLAWVNTPKKQGGLGPMNIPLVSDPKRTIAQDYGVLKADEGISFRGLFIIDDKGILRQITVNDLPVGRSVDETLRLVQAFQFTDKHGEVCPAGWKPGSDTIKPDVQKSKEYFSKQK"
15,binds,"MBOAT7 (protein, UniProt Q96N66 1-472) MSPEEWTYLVVLLISIPIGFLFKKAGPGLKRWGAAAVGLGLTLFTCGPHTLHSLVTILGTWALIQAQPCSCHALALAWTFSYLLFFRALSLLGLPTPTPFTNAVQLLLTLKLVSLASEVQDLHLAQRKEMASGFSKGPTLGLLPDVPSLMETLSYSYCYVGIMTGPFFRYRTYLDWLEQPFPGAVPSLRPLLRRAWPAPLFGLLFLLSSHLFPLEAVREDAFYARPLPARLFYMIPVFFAFRMRFYVAWIAAECGCIAAGFGAYPVAAKARAGGGPTLQCPPPSSPEKAASLEYDYETIRNIDCYSTDFCVRVRDGMRYWNMTVQWWLAQYIYKSAPARSYVLRSAWTMLLSAYWHGLHPGYYLSFLTIPLCLAAEGRLESALRGRLSPGGQKAWDWVHWFLKMRAYDYMCMGFVLLSLADTLRYWASIYFCIHFLALAALGLGLALGGGSPSRRKAASQPTSLAPEKLREE"
16,binds,"PGRMC2 (protein, UniProt O15173 1-223) MAAGDGDVKLGTLGSGSESSNDGGSESPGDAGAAAEGGGWAAAALALLTGGGEMLLNVALVALVLLGAYRLWVRWGRRGLGAGAGAGEESPATSLPRMKKRDFSLEQLRQYDGSRNPRILLAVNGKVFDVTKGSKFYGPAGPYGIFAGRDASRGLATFCLDKDALRDEYDDLSDLNAVQMESVREWEMQFKEKYDYVGRLLKPGEEPSEYTDEEDTKDHNKQD"
17,binds,"SLC25A6/ANT3 (protein, UniProt P12236 1-298) MTEQAISFAKDFLAGGIAAAISKTAVAPIERVKLLLQVQHASKQIAADKQYKGIVDCIVRIPKEQGVLSFWRGNLANVIRYFPTQALNFAFKDKYKQIFLGGVDKHTQFWRYFAGNLASGGAAGATSLCFVYPLDFARTRLAADVGKSGTEREFRGLGDCLVKITKSDGIRGLYQGFSVSVQGIIIYRAAYFGVYDTAKGMLPDPKNTHIVVSWMIAQTVTAVAGVVSYPFDTVRRRMMMQSGRKGADIMYTGTVDCWRKIFRDEGGKAFFKGAWSNVLRGMGGAFVLVLYDELKKVI"
18,binds,"AGK (protein, UniProt Q53H12 1-422) MTVFFKTLRNHWKKTTAGLCLLTWGGHWLYGKHCDNLLRRAACQEAQVFGNQLIPPNAQVKKATVFLNPAACKGKARTLFEKNAAPILHLSGMDVTIVKTDYEGQAKKLLELMENTDVIIVAGGDGTLQEVVTGVLRRTDEATFSKIPIGFIPLGETSSLSHTLFAESGNKVQHITDATLAIVKGETVPLDVLQIKGEKEQPVFAMTGLRWGSFRDAGVKVSKYWYLGPLKIKAAHFFSTLKEWPQTHQASISYTGPTERPPNEPEETPVQRPSLYRRILRRLASYWAQPQDALSQEVSPEVWKDVQLSTIELSITTRNNQLDPTSKEDFLNICIEPDTISKGDFITIGSRKVRNPKLHVEGTECLQASQCTLLIPEGAGGSFSIDSEEYEAMPVEVKLLPRKLQFFCDPRKREQMLTSPTQ"
19,binds,"SLC25A3/PiC2 (protein, UniProt Q00325 50-362) AVEEQYSCDYGSGRFFILCGLGGIISCGTTHTALVPLDLVKCRMQVDPQKYKGIFNGFSVTLKEDGVRGLAKGWAPTFLGYSMQGLCKFGFYEVFKVLYSNMLGEENTYLWRTSLYLAASASAEFFADIALAPMEAAKVRIQTQPGYANTLRDAAPKMYKEEGLKAFYKGVAPLWMRQIPYTMMKFACFERTVEALYKFVVPKPRSECSKPEQLVVTFVAGYIAGVFCAIVSHPADSVVSVLNKEKGSSASLVLKRLGFKGVWKGLFARIIMIGTLTALQWFIYDSVKVYFRLPRPPPPEMPESLKKKLGLTQ"
20,binds,"TMEM43 (protein, UniProt Q9BTV4 1-400) MAANYSSTSTRREHVKVKTSSQPGFLERLSETSGGMFVGLMAFLLSFYLIFTNEGRALKTATSLAEGLSLVVSPDSIHSVAPENEGRLVHIIGALRTSKLLSDPNYGVHLPAVKLRRHVEMYQWVETEESREYTEDGQVKKETRYSYNTEWRSEIINSKNFDREIGHKNPSAMAVESFMATAPFVQIGRFFLSSGLIDKVDNFKSLSLSKLEDPHVDIIRRGDFFYHSENPKYPEVGDLRVSFSYAGLSGDDPDLGPAHVVTVIARQRGDQLVPFSTKSGDTLLLLHHGDFSAEEVFHRELRSNSMKTWGLRAAGWMAMFMGLNLMTRILYTLVDWFPVFRDLVNIGLKAFAFCVATSLTLLTVAAGWLFYRPLWALLIAGLALVPILVARTRVPAKKLE"

# These are yes or no findings as the source states them, for the method shown. Binding seen in cells or lysates may run through a third protein. A yes stands for co-enrichment or nearness to the bait. Other partners may have been found. Where a sequence is shown, tags or fusion partners need not be part of it.
